From paper PMC6718625, “CryoEM structures of Arabidopsis DDR complexes involved in RNA-directed DNA methylation” (Nature Communications, 2019)

Target: T1, RDM1-3xFLAG (RNA-DIRECTED DNA …ON 1) (Arabidopsis) (UniProt Q9LUJ3)
T1 sequence: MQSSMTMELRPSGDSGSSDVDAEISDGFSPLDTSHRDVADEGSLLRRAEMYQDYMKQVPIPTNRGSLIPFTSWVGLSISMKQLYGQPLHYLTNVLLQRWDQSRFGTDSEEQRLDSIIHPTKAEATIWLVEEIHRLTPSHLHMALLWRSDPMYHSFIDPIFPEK
Test: affinity purification with mass spectrometry; anti-FLAG M2 magnetic beads on extracts of inflorescences of RDM1-3xFLAG lines; IP buffer 50 mM Tris pH 7.6, 150 mM NaCl, 5 mM MgCl2, 10% glycerol, 0.1% NP40; 4 °C 3 h; eluted with 3xFLAG peptide; untransformed WS as control

binding: binds
Substance: … IN MERISTEM … 3 (DMS3), endogenous (from UniProt Q94A79 1-420)

No constants are given. Whether binding was seen depends on the method and setting. In cells and extracts the contact can be indirect. Here binding means that the protein was enriched with, or labelled near, the bait; the list need not be complete. Tags and fused reporters may be left off the sequences shown.
